Data as given in PMC7910834.
No constants are given. Whether binding was seen depends on the method and setting. Some binding calls cover weakened binding; strength is not graded here.

The chains behind the UniProt entries cited, without tags or fusion partners.
UniProt P61586: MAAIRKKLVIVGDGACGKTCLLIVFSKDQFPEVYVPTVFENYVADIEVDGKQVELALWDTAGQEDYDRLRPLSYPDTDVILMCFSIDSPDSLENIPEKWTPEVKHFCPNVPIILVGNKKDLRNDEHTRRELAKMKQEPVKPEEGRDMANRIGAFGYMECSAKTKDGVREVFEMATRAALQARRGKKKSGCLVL
UniProt Q13526: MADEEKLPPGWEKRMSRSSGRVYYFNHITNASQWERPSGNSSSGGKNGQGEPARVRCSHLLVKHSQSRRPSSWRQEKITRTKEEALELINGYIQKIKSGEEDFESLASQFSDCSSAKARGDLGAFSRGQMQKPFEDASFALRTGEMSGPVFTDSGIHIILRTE

Biological target: His6-TAT-Myc-RhoA (UniProt P61586)
Assay: co-IP; purified recombinant proteins mixed in Nonidet P-40 buffer, incubated with normal IgG or anti-Myc Ab, then protein-G Sepharose beads; immunoblot with anti-Pin1 and anti-GFP; both purified

His6-TAT-HA-Pin1 (recombinant full-length Pin1) (from UniProt Q13526 1-163) (enzyme)
binding: binds
